Data as given in PubChem BioAssay AID504795 (Drosophila RNAi Screening Center, 2011)

- Assay: 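Knock-downs causing abnormal branching, bundling, swelling or growth of cultured neurons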 (primary screen)
- Cell system: primary Drosophila neurons and glia
- Knock-down reagent: long dsRNA against Drosophila genes, 250 ng dsRNA per well
- Timing: one week
- Measured: 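GFP-labelled neurons and glia imaged live by automated microscope one week after 250 ng dsRNA per well; morphology scored by eye as descriptive phenotype terms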
The reagents shown are a selection, not the whole library. 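Every listed dsRNA shows some phenotype; how reagents were selected for listing is not stated.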 Names joined by + are all predicted targets of the reagent.

| predicted target | amplicon | phenotype seen, replicate 1 | phenotype seen, replicate 2 |
| --- | --- | --- | --- |
| Smyd4-2 | DRSC10126 | fewer cells | – |
| Tpr2 | DRSC03461 | reduced axon outgrowth | – |
| trpl | DRSC06728 | axon bundles split apart | – |
| trpl | DRSC06729 | reduced axon outgrowth | – |
| l(1)10Bb | DRSC20346 | too many neurite branches | – |
| CG42531 | DRSC05318 | axon bundles split apart | – |
| CG12078 | DRSC08242 | axon bundles split apart | – |
| Skp2 + CG1103 | DRSC22356 | too many neurite branches | – |
| CG8152 | DRSC07083 | fewer cells | – |
| CG10102 (retired record) | DRSC05963 | axon bundles split apart | – |
| CG45105 | DRSC15002 | sheet-like cell extensions | – |
| Hakai | DRSC02031 | sheet-like cell extensions | – |
| CG17839 | DRSC10291 | too many neurite branches | – |
| Fili | DRSC04445 | axon bundles split apart | – |
| Nazo | DRSC14343 | reduced axon outgrowth | axon bundles split apart |
| Muc11A | DRSC19498 | too many neurite branches | – |
| dally | DRSC08954 | abnormal cell clusters | – |
| Rnf11 | DRSC21574 | too many neurite branches | – |
| bves | DRSC20554 | sheet-like cell extensions | – |
| CG42249 | DRSC19826 | axon bundles split apart | – |
| LpR2 | DRSC13726 | axon bundles split apart | – |
| opm | DRSC20141 | axon bundles split apart | – |
| RasGAP1 | DRSC11172 | axon bundles split apart | – |
| CG12828 | DRSC06177 | abnormal cell clusters | – |
| CG42390 | DRSC15866 | too many neurite branches | – |
| CG8765 | DRSC11041 | too many neurite branches | abnormal cell clusters |
| Cpr62Ba | DRSC08403 | beaded; swollen axons | – |
| MnM | DRSC08423 | too many neurite branches | – |
| moody | DRSC18515 | sheet-like cell extensions | – |
| CG8468 | DRSC07190 | fewer cells | – |
| nAChRalpha5 | DRSC22785 | too many neurite branches | – |
| CG14839 | DRSC14963 | axon bundles split apart | – |
| CG34348 | DRSC19644 | axon bundles split apart | – |
| CG9098 | DRSC03136 | weaker green signal | – |
| stretch (retired record) | DRSC14347 | sheet-like cell extensions | – |
| CG17364 | DRSC10270 | reduced axon outgrowth | axon bundles split apart |
| Fntb | DRSC15244 | cell fragments present | – |
| CG11854 | DRSC14409 | sheet-like cell extensions | – |
| PGAP3 | DRSC04989 | too many neurite branches | – |
| CG4511 | DRSC15589 | axon bundles split apart | – |
| Cow | DRSC14680 | sheet-like cell extensions | – |
| Syt14 | DRSC12331 | beaded; swollen axons | – |
| CG9067 | DRSC07328 | too many neurite branches | – |
| MED25 | DRSC14483 | too many neurite branches | – |
| Hk | DRSC18674 | axon bundles split apart | – |
| ACXA | DRSC00844 | abnormal cell clusters | – |
| Cdc45 | DRSC17747 | reduced axon outgrowth | – |
| CG3222 | DRSC10355 | axon bundles split apart | – |
| GstT2 | DRSC06244 | too many neurite branches | – |
| Sgt1 | DRSC16519 | abnormal cell clusters | – |
| rl | DRSC07833 | axon bundles split apart | – |
| klar | DRSC22393 | too many neurite branches | – |
| Vm32E | DRSC03474 | axon bundles split apart | – |
| Ipk1 | DRSC04236 | too many neurite branches | – |
| Ipk1 | DRSC04237 | axon bundles split apart | – |
| Rad51D | DRSC06840 | axon bundles split apart | – |
| CG12279 | DRSC14495 | axon bundles split apart | – |
| Kif3C | DRSC17209 | abnormal cell clusters | – |
| beta'COP | DRSC03492 | reduced axon outgrowth | – |
| CG5327 | DRSC06930 | axon bundles split apart | – |
| CG14265 | DRSC18591 | axon bundles split apart | – |
| Whamy | DRSC14574 | too many neurite branches | – |
| CG31683 + CG18858 | DRSC02703 | too many neurite branches | – |
| Nlg1 | DRSC12533 | reduced axon outgrowth | – |
| dor | DRSC18765 | axon bundles split apart | – |
| COX7C | DRSC06831 | abnormal cell clusters | – |
| Irbp18 | DRSC10612 | sheet-like cell extensions | reduced axon outgrowth |
| Pabp2 | DRSC07501 | sheet-like cell extensions | – |
| mRpL18 | DRSC06142 | beaded; swollen axons | – |
| CG6220 | DRSC06969 | axon bundles split apart | – |
| Ir75b | DRSC10189 | abnormal cell clusters | – |
| DIP-zeta | DRSC02203 | beaded; swollen axons | – |
| DIP-zeta | DRSC02204 | axon bundles split apart | – |
| l(3)80Fj | DRSC20989 | sheet-like cell extensions | – |
| CG1552 | DRSC19665 | too many neurite branches | – |
| CG5885 | DRSC02910 | axon bundles split apart | – |
| CG15605 | DRSC06558 | sheet-like cell extensions | – |
| CG18747 | DRSC15384 | axon bundles split apart | – |
| Gld | DRSC12595 | too many neurite branches | – |
| rec | DRSC14998 | axon bundles split apart | – |
| CG15423 | DRSC00437 | axon bundles split apart | – |
| CG34299 | DRSC13974 | beaded; swollen axons | – |
| CG16854 | DRSC02536 | too many neurite branches | – |
| RpL19 | DRSC04649 | too many neurite branches | – |
| CG16953 | DRSC15167 | fewer cells | – |
| Amy-d | DRSC05919 | abnormal cell clusters | – |
| side | DRSC14717 | too many neurite branches | – |
| CG8420 | DRSC16418 | reduced axon outgrowth | – |
| Lk | DRSC10022 | sheet-like cell extensions | – |
| unc-13-4A | DRSC10203 | abnormal cell clusters | – |
| CG5276 | DRSC15759 | axon bundles split apart | – |
| aPKC | DRSC05515 | axon bundles split apart | – |
| CG15753 (retired record) | DRSC19718 | too many neurite branches | – |
| hppy | DRSC07015 | beaded; swollen axons | – |
| RpLP0-like | DRSC06424 | too many neurite branches | – |
| wnd | DRSC21373 | too many neurite branches | axon bundles split apart |
| Nepl10 | DRSC07212 | fewer cells | – |
| LysP | DRSC08676 | axon bundles split apart | – |
| RpL23 | DRSC04648 | axon bundles split apart | – |
| RpL36A | DRSC03055 | axon bundles split apart | – |
| Ldaf1 | DRSC17963 | too many neurite branches | – |
| Dsp1 | DRSC20315 | abnormal cell clusters | – |
| CG7546 | DRSC08885 | beaded; swollen axons | – |
| CG3502 | DRSC04381 | abnormal cell clusters | – |
| syd | DRSC10963 | abnormal cell clusters | – |
| CG15831 (retired record) | DRSC20816 | fewer cells | – |
| Sec23 | DRSC12387 | too many neurite branches | – |
| arm | DRSC18738 | axon bundles split apart | – |
| eIF4A | DRSC03526 | beaded; swollen axons | – |

15 of these entries, set out differently.
predicted target | amplicon | phenotype seen, replicate 1 | phenotype seen, replicate 2
Pabp2 | DRSC07501 | sheet-like cell extensions | –
mRpL18 | DRSC06142 | beaded; swollen axons | –
CG6220 | DRSC06969 | axon bundles split apart | –
Ir75b | DRSC10189 | abnormal cell clusters | –
DIP-zeta | DRSC02203 | beaded; swollen axons | –
DIP-zeta | DRSC02204 | axon bundles split apart | –
l(3)80Fj | DRSC20989 | sheet-like cell extensions | –
CG1552 | DRSC19665 | too many neurite branches | –
CG5885 | DRSC02910 | axon bundles split apart | –
CG15605 | DRSC06558 | sheet-like cell extensions | –
CG18747 | DRSC15384 | axon bundles split apart | –
Gld | DRSC12595 | too many neurite branches | –
rec | DRSC14998 | axon bundles split apart | –
CG15423 | DRSC00437 | axon bundles split apart | –
CG34299 | DRSC13974 | beaded; swollen axons | –
